# Measured values from patent US8202910B2 (Sequella, Inc., priority 2006, dated 2012).
# Tested on: monkey kidney cells (Vero)
# Test: In vitro toxicity, Vero cells
# Type: cell-based
# Details: ratio of IC50:MIC
# Method: Twenty six compounds (including 37, 59 and 109) were tested in an in vitro model of toxicity using monkey kidney cells (Vero) and human cervical cancer cells (HeLa) using methods well known to those skilled in the art. The data from this toxicity testing and the MIC data were used to calculate a selectivity index (SI), the ratio of IC50:MIC (Table 15). Selectivity Indexes were ranging from 1.76 to 16.67.
row,SMILES,SI (IC50:MIC)
1,"CC1(C)C2CCC(CNCCNCC(c3ccccc3)c3ccccc3)[C@@H]1C2 (stereo partly drawn) [Compound 37, N-(2,2-Diphenylethyl)-N′-(−)-cis-(myrtanyl)ethane-1,2-diamine]",4.10
2,"CC(CNCC(c1ccccc1)c1ccccc1)NCC1CCC2C[C@@H]1C2(C)C (stereo partly drawn) [Compound 38, N-(−)-cis-(Myrtanyl)-N′-(2,2-diphenylethyl)propyl-1,2-diamine]",5.28
3,"C[C@@H]1C2C[C@@H](C[C@H]1NCCNCC(c1ccccc1)c1ccccc1)C2(C)C [Compound 40, N-(2,2-Diphenylethyl)-N′-(1R,2R,3R,5S)-(−)-isopinocampheylethane-1,2-diamine]",1.88
4,"CC1CCCC(NCCNC[C@@H]2CCC3C[C@@H]2C3(C)C)C1C (stereo partly drawn) [Compound 41, N-(−)-cis-(Myrtanyl)-N′-(2,3-dimethylcyclohexyl)ethane-1,2-diamine]",2.05
5,"CC1(C)C2CCC(CNCCNC3CCCCCCC3)[C@@H]1C2 (stereo partly drawn) [Compound 57, N-(−)-cis-Myrtanyl-N′-(cyclooctyl)ethane-1,2-diamine]",2.40
6,"C1CCCC(NCCNC2C3CC4CC(C3)CC2C4)CCC1 (stereo not shown) [Compound 58, N-(Cyclooctyl)-N′-(2-adamantyl)ethane-1,2-diamine]",6.56
7,"C[C@@H]1[C@H]2C[C@@H](C[C@H]1NCCNC1CCCCCCC1)C2(C)C [Compound 59, N-(Cyclooctyl)-N′-(1R, 2R, 3R, 5S)-(−)-isopinocampheylethane-1,2-diamine]",2.30
8,"C[C@@H]1C2C[C@@H](C[C@H]1NCCNCCC(c1ccccc1)c1ccccc1)C2(C)C [Compound 66, N-(3,3-Diphenylpropyl)-N′-(1R, 2R, 3R, 5S)-(−)-isopinocampheylethane-1,2-diamine]",1.76
9,"COc1ccccc1CCNCCNC1C2CC3CC(C2)CC1C3 (stereo not shown) [Compound 73, N-(2-Adamantyl)-N′-[2-(2-methoxyphenyl)ethyl]ethane-1,2-diamine]",6.48
10,"CCC1CCCCN1CCNC/C=C(\C)CCC=C(C)C (stereo not shown) [Compound 111, N-[2-(N′-Geranyl)aminoethyl]-2-ethylpiperidine]",5.76
